PubChem BioAssay AID1224830, NIAID | 2016

Assay: 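Host factors that control LPS-induced TNF expression in human macrophages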 (primary screen)
Cell system: human THP-1 monocytic leukaemia cells, TNF dual-luciferase reporter clone, PMA-differentiated to macrophage-like cells
Reagent: siRNA pool against human genes, 50 nM
Timing: LPS for 4 h, given about 3 days after siRNA transfection
Challenge: bacterial LPS (TLR4 ligand), 10 ng/ml
Measurement: 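TNF firefly reporter luminescence divided by renilla, normalised to the plate median, then turned into a robust z-score for each replicate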
Direction: TNF reporter robust z-score: higher = stronger TNF reporter response to LPS
Rule for the call: 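Each well counts as active if its z-score is over 2.8 or under -1.5; controls are left without a call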
Shown is one part, drawn at random, of about 18,000 reagents. About 2,900 of all reagents (16%) were called active. 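Calls are made per well; low scores hint the gene aids the LPS response, high scores that it dampens it.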 Unmarked entries are inactive. Repeated entries: four replicate wells of each siRNA pool.

| gene symbol | PubChem SID | TNF reporter robust z-score |
| --- | --- | --- |
| APOL6 (apolipoprotein L6) | SID315459822 | 1.18 |
| APOL6 (apolipoprotein L6) | SID315459822 | 0.16 |
| APOL6 (apolipoprotein L6) | SID315459822 | 0.48 |
| APOL6 (apolipoprotein L6) | SID315459822 | -0.22 |
| PVR (PVR cell adhesion molecule) | SID315450985 | 1.93 |
| PVR (PVR cell adhesion molecule) | SID315450985 | 2.7 |
| PVR (PVR cell adhesion molecule) | SID315450985 | 3.33 (active) |
| PVR (PVR cell adhesion molecule) | SID315450985 | 2.3 |
| RPE65 (retinoid isomerohydrolase RPE65) | SID315451168 | 0.21 |
| RPE65 (retinoid isomerohydrolase RPE65) | SID315451168 | -0.63 |
| RPE65 (retinoid isomerohydrolase RPE65) | SID315451168 | 0.11 |
| RPE65 (retinoid isomerohydrolase RPE65) | SID315451168 | 1.49 |
| ZNF445 (zinc finger protein 445) | SID315464285 | -0.6 |
| ZNF445 (zinc finger protein 445) | SID315464285 | 0.67 |
| ZNF445 (zinc finger protein 445) | SID315464285 | -0.8 |
| ZNF445 (zinc finger protein 445) | SID315464285 | 0.4 |
| CCNK (cyclin K) | SID315452840 | 2.21 |
| CCNK (cyclin K) | SID315452840 | 2.46 |
| CCNK (cyclin K) | SID315452840 | 1.43 |
| CCNK (cyclin K) | SID315452840 | 2.09 |
| SLC38A6 | SID315462242 | -0.93 |
| SLC38A6 | SID315462242 | -0.86 |
| SLC38A6 | SID315462242 | -0.57 |
| SLC38A6 | SID315462242 | -0.51 |
| SIX6 (SIX homeobox 6) | SID315450365 | 0.06 |
| SIX6 (SIX homeobox 6) | SID315450365 | 0.17 |
| SIX6 (SIX homeobox 6) | SID315450365 | -0.38 |
| SIX6 (SIX homeobox 6) | SID315450365 | -0.07 |
| CSAD (cysteine sulfinic acid decarboxylase) | SID315456684 | -0.97 |
| CSAD (cysteine sulfinic acid decarboxylase) | SID315456684 | -0.67 |
| CSAD (cysteine sulfinic acid decarboxylase) | SID315456684 | -1.9 (active) |
| CSAD (cysteine sulfinic acid decarboxylase) | SID315456684 | -0.47 |
| TACC2 (transforming acidic coiled-coil containing protein 2) | SID315454208 | -1.11 |
| TACC2 (transforming acidic coiled-coil containing protein 2) | SID315454208 | -0.67 |
| TACC2 (transforming acidic coiled-coil containing protein 2) | SID315454208 | -0.88 |
| TACC2 (transforming acidic coiled-coil containing protein 2) | SID315454208 | -0.81 |
| RIMS3 (regulating synaptic membrane exocytosis 3) | SID315453562 | -0.57 |
| RIMS3 (regulating synaptic membrane exocytosis 3) | SID315453562 | -0.38 |
| RIMS3 (regulating synaptic membrane exocytosis 3) | SID315453562 | -0.62 |
| RIMS3 (regulating synaptic membrane exocytosis 3) | SID315453562 | -0.48 |
| GRIP1 (glutamate receptor interacting protein 1) | SID315455235 | -0.81 |
| GRIP1 (glutamate receptor interacting protein 1) | SID315455235 | 0.52 |
| GRIP1 (glutamate receptor interacting protein 1) | SID315455235 | 0.47 |
| GRIP1 (glutamate receptor interacting protein 1) | SID315455235 | 1.55 |
| PAQR9 (progestin and adipoQ receptor family member 9) | SID315464180 | 0.79 |
| PAQR9 (progestin and adipoQ receptor family member 9) | SID315464180 | -0.9 |
| PAQR9 (progestin and adipoQ receptor family member 9) | SID315464180 | -1.24 |
| PAQR9 (progestin and adipoQ receptor family member 9) | SID315464180 | -1.36 |
| F7 (coagulation factor VII) | SID315448605 | -1.18 |
| F7 (coagulation factor VII) | SID315448605 | 0.5 |
| F7 (coagulation factor VII) | SID315448605 | 0.07 |
| F7 (coagulation factor VII) | SID315448605 | 0.33 |
| DOLPP1 (dolichyldiphosphatase 1) | SID315458312 | -0.95 |
| DOLPP1 (dolichyldiphosphatase 1) | SID315458312 | -1.04 |
| DOLPP1 (dolichyldiphosphatase 1) | SID315458312 | -0.79 |
| DOLPP1 (dolichyldiphosphatase 1) | SID315458312 | -1.26 |
| SLC7A6OS | SID315460207 | 1 |
| SLC7A6OS | SID315460207 | -0.03 |
| SLC7A6OS | SID315460207 | 2.23 |
| SLC7A6OS | SID315460207 | -0.41 |
| CCDC12 (coiled-coil domain containing 12) | SID315462513 | -1.65 (active) |
| CCDC12 (coiled-coil domain containing 12) | SID315462513 | -1.84 (active) |
| CCDC12 (coiled-coil domain containing 12) | SID315462513 | -1.75 (active) |
| CCDC12 (coiled-coil domain containing 12) | SID315462513 | -1.7 (active) |
| RBMY1J (RNA binding motif protein Y-linked family 1 member J) | SID315464405 | 0.93 |
| RBMY1J (RNA binding motif protein Y-linked family 1 member J) | SID315464405 | 0.25 |
| RBMY1J (RNA binding motif protein Y-linked family 1 member J) | SID315464405 | 0.39 |
| RBMY1J (RNA binding motif protein Y-linked family 1 member J) | SID315464405 | 0.13 |
| BNIP3L (BCL2 interacting protein 3 like) | SID315447575 | -0.44 |
| BNIP3L (BCL2 interacting protein 3 like) | SID315447575 | -0.7 |
| BNIP3L (BCL2 interacting protein 3 like) | SID315447575 | -0.33 |
| BNIP3L (BCL2 interacting protein 3 like) | SID315447575 | -0.13 |
| XPNPEP2 (X-prolyl aminopeptidase 2) | SID315452164 | -0.42 |
| XPNPEP2 (X-prolyl aminopeptidase 2) | SID315452164 | -0.24 |
| XPNPEP2 (X-prolyl aminopeptidase 2) | SID315452164 | -1.78 (active) |
| XPNPEP2 (X-prolyl aminopeptidase 2) | SID315452164 | -0.22 |

Laid out differently: results already given
{"gene symbol": "RPE65 (retinoid isomerohydrolase RPE65)", "PubChem SID": "SID315451168", "TNF reporter robust z-score": 1.49}
{"gene symbol": "ZNF445 (zinc finger protein 445)", "PubChem SID": "SID315464285", "TNF reporter robust z-score": -0.6}
{"gene symbol": "ZNF445 (zinc finger protein 445)", "PubChem SID": "SID315464285", "TNF reporter robust z-score": 0.67}
{"gene symbol": "ZNF445 (zinc finger protein 445)", "PubChem SID": "SID315464285", "TNF reporter robust z-score": -0.8}
{"gene symbol": "ZNF445 (zinc finger protein 445)", "PubChem SID": "SID315464285", "TNF reporter robust z-score": 0.4}
{"gene symbol": "CCNK (cyclin K)", "PubChem SID": "SID315452840", "TNF reporter robust z-score": 2.21}
{"gene symbol": "CCNK (cyclin K)", "PubChem SID": "SID315452840", "TNF reporter robust z-score": 2.46}
{"gene symbol": "CCNK (cyclin K)", "PubChem SID": "SID315452840", "TNF reporter robust z-score": 1.43}
{"gene symbol": "CCNK (cyclin K)", "PubChem SID": "SID315452840", "TNF reporter robust z-score": 2.09}
{"gene symbol": "SLC38A6", "PubChem SID": "SID315462242", "TNF reporter robust z-score": -0.93}
{"gene symbol": "SLC38A6", "PubChem SID": "SID315462242", "TNF reporter robust z-score": -0.86}
{"gene symbol": "SLC38A6", "PubChem SID": "SID315462242", "TNF reporter robust z-score": -0.57}
{"gene symbol": "SLC38A6", "PubChem SID": "SID315462242", "TNF reporter robust z-score": -0.51}
{"gene symbol": "SIX6 (SIX homeobox 6)", "PubChem SID": "SID315450365", "TNF reporter robust z-score": 0.06}
{"gene symbol": "SIX6 (SIX homeobox 6)", "PubChem SID": "SID315450365", "TNF reporter robust z-score": 0.17}
{"gene symbol": "SIX6 (SIX homeobox 6)", "PubChem SID": "SID315450365", "TNF reporter robust z-score": -0.38}
{"gene symbol": "SIX6 (SIX homeobox 6)", "PubChem SID": "SID315450365", "TNF reporter robust z-score": -0.07}
{"gene symbol": "CSAD (cysteine sulfinic acid decarboxylase)", "PubChem SID": "SID315456684", "TNF reporter robust z-score": -0.97}
{"gene symbol": "CSAD (cysteine sulfinic acid decarboxylase)", "PubChem SID": "SID315456684", "TNF reporter robust z-score": -0.67}
{"gene symbol": "CSAD (cysteine sulfinic acid decarboxylase)", "PubChem SID": "SID315456684", "TNF reporter robust z-score": "-1.9 (active)"}

Further records:
| gene symbol | PubChem SID | TNF reporter robust z-score |
| --- | --- | --- |
| MCM3AP | SID315452904 | -1.76 (active) |
| MCM3AP | SID315452904 | -1.42 |
| MCM3AP | SID315452904 | -1.27 |
| MCM3AP | SID315452904 | -1.31 |
| LACTB (lactamase beta) | SID315461217 | -0.42 |
| LACTB (lactamase beta) | SID315461217 | -0.23 |
| LACTB (lactamase beta) | SID315461217 | -1.52 (active) |
| THAP7 (THAP domain containing 7) | SID315459804 | -1.52 (active) |
| THAP7 (THAP domain containing 7) | SID315459804 | -0.78 |
| THAP7 (THAP domain containing 7) | SID315459804 | -1.29 |
| THAP7 (THAP domain containing 7) | SID315459804 | -0.49 |
| MDH2 (malate dehydrogenase 2) | SID315449921 | -0.13 |
| MDH2 (malate dehydrogenase 2) | SID315449921 | 1.59 |
| MDH2 (malate dehydrogenase 2) | SID315449921 | 1.11 |
| MDH2 (malate dehydrogenase 2) | SID315449921 | 1.77 |
| RAVER1 (ribonucleoprotein, PTB binding 1) | SID315461666 | -0.68 |
| RAVER1 (ribonucleoprotein, PTB binding 1) | SID315461666 | 0.17 |
| RAVER1 (ribonucleoprotein, PTB binding 1) | SID315461666 | -0.12 |
| RAVER1 (ribonucleoprotein, PTB binding 1) | SID315461666 | -0.01 |
| TRIM63 (tripartite motif containing 63) | SID315460457 | 1.85 |
| TRIM63 (tripartite motif containing 63) | SID315460457 | 5.13 (active) |
| TRIM63 (tripartite motif containing 63) | SID315460457 | 0.38 |
| TRIM63 (tripartite motif containing 63) | SID315460457 | 1.45 |
| SNX2 (sorting nexin 2) | SID315451569 | -0.17 |
| SNX2 (sorting nexin 2) | SID315451569 | 0.28 |
| SNX2 (sorting nexin 2) | SID315451569 | 1.56 |
| SNX2 (sorting nexin 2) | SID315451569 | 1.29 |
| PACS2 (phosphofurin acidic cluster sorting protein 2) | SID315455098 | -0.61 |
| PACS2 (phosphofurin acidic cluster sorting protein 2) | SID315455098 | -0.48 |
| PACS2 (phosphofurin acidic cluster sorting protein 2) | SID315455098 | -0.5 |
| PACS2 (phosphofurin acidic cluster sorting protein 2) | SID315455098 | -0.07 |
| NOL11 (nucleolar protein 11) | SID315455558 | 0.44 |
| NOL11 (nucleolar protein 11) | SID315455558 | 0.27 |
| NOL11 (nucleolar protein 11) | SID315455558 | 0.37 |
| NOL11 (nucleolar protein 11) | SID315455558 | 0.97 |
| NAAA (N-acylethanolamine acid amidase) | SID315455957 | -0.98 |
| NAAA (N-acylethanolamine acid amidase) | SID315455957 | 1.16 |
| NAAA (N-acylethanolamine acid amidase) | SID315455957 | 0.88 |
| NAAA (N-acylethanolamine acid amidase) | SID315455957 | 0.03 |
| CCDC71L (coiled-coil domain containing 71 like) | SID315462868 | -0.19 |
| CCDC71L (coiled-coil domain containing 71 like) | SID315462868 | -1.14 |
| CCDC71L (coiled-coil domain containing 71 like) | SID315462868 | -0.96 |
| CCDC71L (coiled-coil domain containing 71 like) | SID315462868 | 0.94 |
| ZNF572 (zinc finger protein 572) | SID315462019 | -0.41 |
| ZNF572 (zinc finger protein 572) | SID315462019 | 0.93 |
| ZNF572 (zinc finger protein 572) | SID315462019 | -0.18 |
| ZNF572 (zinc finger protein 572) | SID315462019 | -0.62 |
| CFAP65 (cilia and flagella associated protein 65) | SID315463480 | 1.26 |
| CFAP65 (cilia and flagella associated protein 65) | SID315463480 | 2.49 |
| CFAP65 (cilia and flagella associated protein 65) | SID315463480 | 2.1 |
| CFAP65 (cilia and flagella associated protein 65) | SID315463480 | 0.9 |
| MTHFD1 | SID315450066 | 0.14 |
| MTHFD1 | SID315450066 | 0.97 |
| MTHFD1 | SID315450066 | 1.61 |
| MTHFD1 | SID315450066 | 2.85 (active) |
| TRIM46 (tripartite motif containing 46) | SID315459657 | 0.79 |
| TRIM46 (tripartite motif containing 46) | SID315459657 | 3.2 (active) |
| TRIM46 (tripartite motif containing 46) | SID315459657 | -1.74 (active) |
| GIP (gastric inhibitory polypeptide) | SID315448896 | -0.65 |
| GIP (gastric inhibitory polypeptide) | SID315448896 | -1.21 |
| GIP (gastric inhibitory polypeptide) | SID315448896 | 0.18 |
| GIP (gastric inhibitory polypeptide) | SID315448896 | 0.57 |
| SURF2 (surfeit 2) | SID315451711 | -0.58 |
| SURF2 (surfeit 2) | SID315451711 | -0.49 |
| SURF2 (surfeit 2) | SID315451711 | -0.08 |
| SURF2 (surfeit 2) | SID315451711 | -0.34 |
